These are yes or no findings as the source states them, for the method shown. Where a sequence is shown, tags or fusion partners need not be part of it.
Molecular target: Peptidyl-prolyl cis/trans-isomerase Rrd1 from Saccharomyces cerevisiae (S. cerevisiae) (UniProt P40454)
Test: SEC; AKTA FPLC, Superdex 200 10/300 GL, 20 mM Tris pH 8.0, 150 mM NaCl, room temperature, flow 0.4 ml/min, detection at 280 nm; column calibrated with standard molecular weight markers; eluted at 15.4 ml, around 45 kDa; both purified

B1: Peptidyl-prolyl cis/trans-isomerase Rrd1 from Saccharomyces cerevisiae (enzyme, UniProt P40454 1-393)
chain: MSLDRVDWPHATFSTPVKRIFDTQTTLDFQSSLAIHRIKYHLHKYTTLISHCSDPDPHATASSIAMVNGLMGVLDKLAHLIDETPPLPGPRRYGNLACREWHHKLDERLPQWLQEMLPSEYHEVVPELQYYLGNSFGSSTRLDYGTGHELSFMATVAALDMLGMFPHMRGADVFLLFNKYYTIMRRLILTYTLEPAGSHGVWGLDDHFHLVYILGSSQWQLLDAQAPLQPREILDKSLVREYKDTNFYCQGINFINEVKMGPFEEHSPILYDIAVTVPRWSKVCKGLLKMYSVEVLKKFPVVQHFWFGTGFFPWVNIQNGTDLPVFEEKEEESIEQANAGSPGREQTSTRFPTSTSMPPPGVPPSGNNINYLLSHQNQSHRNQTSFSRDRLRR
  binding: no binding
